Measurements published in US10376520B2, “Methods for the treatment of cardiovascular disorders” (Galapagos NV, priority 2015, dated 2019).
Further values from the same series stand in other lists.

Assays:
Format in all cases: in vivo, human
RA patients [1] = experiment: Atherogenic index, Study 2 (RA patients, monotherapy); conditions: 50 mg q.d. responders
Protocol: As used herein, the term ‘atherogenic index’ refers to
(§1) Double-blind, placebo-controlled, monotherapy study in subjects with moderately to severely active RA who have an inadequate response to methotrexate (MTX) (oral or parenteral).
(§2) Twelve weeks of treatment with Compound 1 (dosed as a [Compound 1:HCl:3H2O]) at 50 mg, 100 mg, or 200 mg q.d.; or placebo. At Week 12, all subjects on placebo and the subjects on the 50 mg dose who have not achieved 20% improvement in swollen joint count (SJC66) and tender joint count (TJC68) will be assigned to 100 mg q.d. in a blinded fashion and will continue treatment until Week 24. Subjects in the other groups will maintain their randomized treatment until Week 24.
The atherogenic index has been identified to be a good predictor of cardiovascular disorders risks and is calculated as follows: […]

RA patients [2] = experiment: [HDL] determination, Study 2 (RA patients, monotherapy); conditions: 50 mg q.d. non responders switching to 100 mg q.d. at week 12
From the text: Randomized, double-blind, placebo-controlled, multicenter, phase IIb dose finding study of Compound 1 (dosed as a [Compound 1:HCl:3H2O]) administered for 24 weeks as monotherapy to subjects with moderately to severely active rheumatoid arthritis who have an inadequate response to methotrexate alone
as §1
280 subjects randomized to one of 3 doses of Compound 1 (dosed as a [Compound 1:HCl:3H2O]) or to placebo, given once daily (q.d.).
as §2
(§3) This assay relies on a homogeneous enzymatic colorimetric test. In the presence of magnesium ions, dextran sulfate selectively forms water-soluble complexes with LDL, VLDL and chylomicrons which are resistant to PEG-modified enzymes.
(§4) The cholesterol concentration of [HDL]-cholesterol is determined enzymatically by cholesterol esterase and cholesterol oxidase coupled with PEG to the amino groups (approx. 40%).
(§5) In the presence of peroxidase, the hydrogen peroxide generated reacts with 4-amino-antipyrine and Sodium N-(2-hydroxy-3-sulfopropyl)-3,5-dimethoxyaniline (HSDA) to form a purple-blue dye. The color intensity of this dye is directly proportional to the cholesterol concentration and is measured photometrically.
(§6) Human serum and plasma samples [HDL] determination was done on a Roche/Hitachi Cobas c 701/702 system which automatically calculate the analyte concentration of each sample. Samples containing precipitates are centrifuged before performing the assay.

RA patients [3] = experiment: [HDL] determination, Study 1 (RA patients, add-on to MTX)
Protocol: Double-blind, placebo-controlled add on study in subjects with moderately to severely active RA who have an inadequate response to methotrexate (MTX) (oral or parenteral).
595 subjects randomized to one of 6 dose regimens of Compound 1 (dosed as a [Compound 1:HCl:3H2O]) (3 dose levels administered either once or twice daily) or placebo on top of each subject's stable dose of MTX.
Compound 1 (dosed as a [Compound 1:HCl:3H2O]) is dosed for twelve weeks once daily (q.d.) (50 mg, 100 mg or 200 mg) or twice daily (b.i.d.) (25 mg, 50 mg or 100 mg); or placebo.
At Week 12, the subjects on placebo who have not achieved 20% improvement in swollen joint count (SJC66) and tender joint count (TJC68) are re-randomized automatically to receive Compound 1 (dosed as a [Compound 1:HCl:3H2O]) either at 100 mg q.d. or 50 mg b.i.d. doses in a blinded fashion; subjects on 50 mg q.d. who have not achieved 20% improvement in SJC66 and TJC68 will be assigned to 100 mg q.d. and subjects on 25 mg b.i.d. that have not achieved a 20% improvement in SJC66 and TJC68 will be assigned to 50 mg b.i.d. Subjects who switch treatment at week 12 are handled as if they discontinued at week 12 for the purpose of statistical analysis, whereas subjects in the other groups will maintain their randomized treatment until Week 24.
as §3, §4, §5, §6

[4] = from 25 mg b.i.d. to 50 mg b.i.d at 12 weeks (N = 17), week 16
[5] = from 25 mg b.i.d. to 50 mg b.i.d at 12 weeks (N = 17), week 20
[6] = placebo switched to 100 mg q.d. at week 12 (N = 15), week 16
[7] = placebo switched to 100 mg q.d. at week 12 (N = 15), week 20
[8] = placebo switched to 100 mg q.d. at week 12 (N = 15), week 24

With `O=C(Nc1nc2cccc(-c3ccc(CN4CCS(=O)(=O)CC4)cc3)n2n1)C1CC1` [Compound 1, cyclopropanecarboxylic acid {5-[4-(1,1-dioxo-thiomorpholin-4-ylmethyl)-phenyl]-[1,2,4]triazolo[1,5-a]pyridin-2yl}-amide] the “Atherogenic index Mean percentage CFB - 24 weeks results” value (RA patients [1]; week 20) was −2.38%, the “Atherogenic index Mean percentage CFB - 24 weeks results” value (RA patients [1]; week 24) was −6.03% and the “[HDL] Mean percentage CFB - 24 weeks results” value (shortened to “[HDL] Mean percentage CFB”) (RA patients [2]; week 12) was 10.42%. The “[HDL] Mean percentage CFB” value (RA patients [2]; week 16) was 14.57%, the “[HDL] Mean percentage CFB” value (RA patients [2]; week 20) was 16.39% and the “[HDL] Mean percentage CFB” value (RA patients [2]; week 24) was 20.96%. For the same molecule, the “[HDL] Mean CFB - 24 weeks results” value (RA patients [3]; [4]) was 0.05 mmol/L, the “[HDL] Median CFB - 24 weeks results” value (RA patients [3]; [4]) was 0.15 mmol/L and the “[HDL] Mean CFB - 24 weeks results” value (RA patients [3]; [5]) was -0.02 mmol/L. For the same molecule, the “[HDL] Median CFB - 24 weeks results” value (RA patients [3]; [5]) was -0.02 mmol/L, the “[HDL] Mean CFB - 24 weeks results” value (RA patients [3]; [6]) was -0.06 mmol/L and the “[HDL] Median CFB - 24 weeks results” value (RA patients [3]; [6]) was 0.00 mmol/L. For the same molecule, the “[HDL] Mean CFB - 24 weeks results” value (RA patients [3]; [7]) was -0.04 mmol/L, the “[HDL] Median CFB - 24 weeks results” value (RA patients [3]; [7]) was -0.09 mmol/L and the “[HDL] Mean CFB - 24 weeks results” value (RA patients [3]; [8]) was -0.03 mmol/L. For the same molecule, the “[HDL] Median CFB - 24 weeks results” value (RA patients [3]; [8]) was -0.08 mmol/L.
